# Laboratory results published in publication PMC6472371.
# The chains behind the UniProt entries cited, without tags or fusion partners.
# UniProt Q9H8M2: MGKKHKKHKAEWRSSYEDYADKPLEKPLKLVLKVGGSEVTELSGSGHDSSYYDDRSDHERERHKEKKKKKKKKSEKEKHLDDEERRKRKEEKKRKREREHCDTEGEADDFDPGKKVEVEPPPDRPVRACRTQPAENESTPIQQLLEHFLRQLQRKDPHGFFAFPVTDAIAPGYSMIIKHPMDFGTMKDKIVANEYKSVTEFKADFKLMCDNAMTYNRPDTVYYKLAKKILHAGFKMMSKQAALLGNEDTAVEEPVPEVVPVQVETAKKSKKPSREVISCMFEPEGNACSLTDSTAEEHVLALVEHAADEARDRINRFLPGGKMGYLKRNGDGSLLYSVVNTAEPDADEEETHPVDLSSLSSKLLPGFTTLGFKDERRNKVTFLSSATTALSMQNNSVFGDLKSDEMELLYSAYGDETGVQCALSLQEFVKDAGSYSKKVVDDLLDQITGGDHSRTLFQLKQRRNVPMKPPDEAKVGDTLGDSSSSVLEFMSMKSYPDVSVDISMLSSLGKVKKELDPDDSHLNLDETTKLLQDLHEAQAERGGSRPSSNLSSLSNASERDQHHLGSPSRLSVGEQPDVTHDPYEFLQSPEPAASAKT
# UniProt Q9NZM4: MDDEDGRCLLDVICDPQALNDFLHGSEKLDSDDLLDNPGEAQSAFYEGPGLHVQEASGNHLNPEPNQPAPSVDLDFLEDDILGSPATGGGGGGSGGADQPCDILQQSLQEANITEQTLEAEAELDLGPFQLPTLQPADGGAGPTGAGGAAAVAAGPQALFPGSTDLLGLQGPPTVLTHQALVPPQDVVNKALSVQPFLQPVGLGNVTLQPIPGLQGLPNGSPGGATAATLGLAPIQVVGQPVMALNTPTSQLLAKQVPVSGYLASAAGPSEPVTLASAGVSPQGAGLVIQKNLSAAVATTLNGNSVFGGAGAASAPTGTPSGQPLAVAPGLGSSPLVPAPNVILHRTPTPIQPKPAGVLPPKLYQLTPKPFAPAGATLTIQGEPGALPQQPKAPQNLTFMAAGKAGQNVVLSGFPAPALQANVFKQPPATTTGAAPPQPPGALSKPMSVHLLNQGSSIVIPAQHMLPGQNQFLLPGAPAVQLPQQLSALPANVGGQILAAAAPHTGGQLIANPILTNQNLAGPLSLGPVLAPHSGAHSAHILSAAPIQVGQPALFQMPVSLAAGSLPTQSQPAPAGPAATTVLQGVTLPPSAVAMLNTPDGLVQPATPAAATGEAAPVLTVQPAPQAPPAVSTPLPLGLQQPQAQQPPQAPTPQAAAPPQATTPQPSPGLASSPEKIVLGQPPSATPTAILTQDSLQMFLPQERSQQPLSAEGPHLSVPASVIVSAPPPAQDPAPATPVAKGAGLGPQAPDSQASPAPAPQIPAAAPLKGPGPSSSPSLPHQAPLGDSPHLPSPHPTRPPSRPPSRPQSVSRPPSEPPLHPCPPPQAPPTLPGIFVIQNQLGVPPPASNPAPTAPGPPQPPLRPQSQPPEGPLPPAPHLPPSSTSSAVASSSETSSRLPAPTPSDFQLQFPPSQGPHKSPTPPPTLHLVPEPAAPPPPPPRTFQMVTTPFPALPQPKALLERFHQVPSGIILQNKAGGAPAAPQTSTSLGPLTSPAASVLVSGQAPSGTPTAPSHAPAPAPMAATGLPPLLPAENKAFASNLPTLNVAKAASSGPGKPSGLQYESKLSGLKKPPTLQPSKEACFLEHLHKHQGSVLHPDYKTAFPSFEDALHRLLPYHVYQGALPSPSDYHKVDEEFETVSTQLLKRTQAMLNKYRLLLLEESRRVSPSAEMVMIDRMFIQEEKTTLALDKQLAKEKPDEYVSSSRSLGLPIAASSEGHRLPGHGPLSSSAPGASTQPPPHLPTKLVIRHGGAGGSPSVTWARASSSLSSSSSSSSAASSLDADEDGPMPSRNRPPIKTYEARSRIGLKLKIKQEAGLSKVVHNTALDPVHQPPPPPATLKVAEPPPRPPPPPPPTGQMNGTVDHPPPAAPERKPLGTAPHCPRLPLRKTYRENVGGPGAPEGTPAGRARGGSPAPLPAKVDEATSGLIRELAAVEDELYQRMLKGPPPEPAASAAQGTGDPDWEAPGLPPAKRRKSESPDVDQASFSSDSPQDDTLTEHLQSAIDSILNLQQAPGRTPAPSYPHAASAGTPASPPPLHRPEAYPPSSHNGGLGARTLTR
# UniProt Q6AI39: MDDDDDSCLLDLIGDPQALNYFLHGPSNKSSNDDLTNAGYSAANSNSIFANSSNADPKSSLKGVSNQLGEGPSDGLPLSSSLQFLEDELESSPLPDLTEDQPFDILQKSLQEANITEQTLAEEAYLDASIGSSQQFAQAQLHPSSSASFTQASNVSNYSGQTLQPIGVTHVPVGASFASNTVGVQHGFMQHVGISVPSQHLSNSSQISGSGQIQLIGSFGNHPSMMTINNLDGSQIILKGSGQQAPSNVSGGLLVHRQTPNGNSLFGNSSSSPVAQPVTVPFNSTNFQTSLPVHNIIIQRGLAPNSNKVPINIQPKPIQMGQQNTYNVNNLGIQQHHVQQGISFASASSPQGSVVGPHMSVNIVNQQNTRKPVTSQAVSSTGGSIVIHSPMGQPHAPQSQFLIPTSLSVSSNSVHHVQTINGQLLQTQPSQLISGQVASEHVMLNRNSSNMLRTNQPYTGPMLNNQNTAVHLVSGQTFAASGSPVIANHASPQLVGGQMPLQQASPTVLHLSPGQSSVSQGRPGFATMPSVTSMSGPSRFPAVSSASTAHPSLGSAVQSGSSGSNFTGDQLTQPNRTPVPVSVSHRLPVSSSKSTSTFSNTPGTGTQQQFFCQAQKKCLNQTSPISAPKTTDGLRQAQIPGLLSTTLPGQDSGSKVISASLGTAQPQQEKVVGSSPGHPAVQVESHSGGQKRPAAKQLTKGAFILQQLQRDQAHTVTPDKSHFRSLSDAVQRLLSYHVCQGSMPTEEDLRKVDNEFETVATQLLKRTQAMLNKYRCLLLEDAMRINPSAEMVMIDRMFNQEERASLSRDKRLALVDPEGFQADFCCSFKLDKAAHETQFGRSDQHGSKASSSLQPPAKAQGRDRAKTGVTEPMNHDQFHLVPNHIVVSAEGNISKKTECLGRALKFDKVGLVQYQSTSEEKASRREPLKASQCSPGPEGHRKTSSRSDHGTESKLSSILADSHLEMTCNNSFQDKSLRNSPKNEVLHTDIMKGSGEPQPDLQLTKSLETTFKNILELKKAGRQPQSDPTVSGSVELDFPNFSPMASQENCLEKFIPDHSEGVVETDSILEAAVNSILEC
# UniProt P51532: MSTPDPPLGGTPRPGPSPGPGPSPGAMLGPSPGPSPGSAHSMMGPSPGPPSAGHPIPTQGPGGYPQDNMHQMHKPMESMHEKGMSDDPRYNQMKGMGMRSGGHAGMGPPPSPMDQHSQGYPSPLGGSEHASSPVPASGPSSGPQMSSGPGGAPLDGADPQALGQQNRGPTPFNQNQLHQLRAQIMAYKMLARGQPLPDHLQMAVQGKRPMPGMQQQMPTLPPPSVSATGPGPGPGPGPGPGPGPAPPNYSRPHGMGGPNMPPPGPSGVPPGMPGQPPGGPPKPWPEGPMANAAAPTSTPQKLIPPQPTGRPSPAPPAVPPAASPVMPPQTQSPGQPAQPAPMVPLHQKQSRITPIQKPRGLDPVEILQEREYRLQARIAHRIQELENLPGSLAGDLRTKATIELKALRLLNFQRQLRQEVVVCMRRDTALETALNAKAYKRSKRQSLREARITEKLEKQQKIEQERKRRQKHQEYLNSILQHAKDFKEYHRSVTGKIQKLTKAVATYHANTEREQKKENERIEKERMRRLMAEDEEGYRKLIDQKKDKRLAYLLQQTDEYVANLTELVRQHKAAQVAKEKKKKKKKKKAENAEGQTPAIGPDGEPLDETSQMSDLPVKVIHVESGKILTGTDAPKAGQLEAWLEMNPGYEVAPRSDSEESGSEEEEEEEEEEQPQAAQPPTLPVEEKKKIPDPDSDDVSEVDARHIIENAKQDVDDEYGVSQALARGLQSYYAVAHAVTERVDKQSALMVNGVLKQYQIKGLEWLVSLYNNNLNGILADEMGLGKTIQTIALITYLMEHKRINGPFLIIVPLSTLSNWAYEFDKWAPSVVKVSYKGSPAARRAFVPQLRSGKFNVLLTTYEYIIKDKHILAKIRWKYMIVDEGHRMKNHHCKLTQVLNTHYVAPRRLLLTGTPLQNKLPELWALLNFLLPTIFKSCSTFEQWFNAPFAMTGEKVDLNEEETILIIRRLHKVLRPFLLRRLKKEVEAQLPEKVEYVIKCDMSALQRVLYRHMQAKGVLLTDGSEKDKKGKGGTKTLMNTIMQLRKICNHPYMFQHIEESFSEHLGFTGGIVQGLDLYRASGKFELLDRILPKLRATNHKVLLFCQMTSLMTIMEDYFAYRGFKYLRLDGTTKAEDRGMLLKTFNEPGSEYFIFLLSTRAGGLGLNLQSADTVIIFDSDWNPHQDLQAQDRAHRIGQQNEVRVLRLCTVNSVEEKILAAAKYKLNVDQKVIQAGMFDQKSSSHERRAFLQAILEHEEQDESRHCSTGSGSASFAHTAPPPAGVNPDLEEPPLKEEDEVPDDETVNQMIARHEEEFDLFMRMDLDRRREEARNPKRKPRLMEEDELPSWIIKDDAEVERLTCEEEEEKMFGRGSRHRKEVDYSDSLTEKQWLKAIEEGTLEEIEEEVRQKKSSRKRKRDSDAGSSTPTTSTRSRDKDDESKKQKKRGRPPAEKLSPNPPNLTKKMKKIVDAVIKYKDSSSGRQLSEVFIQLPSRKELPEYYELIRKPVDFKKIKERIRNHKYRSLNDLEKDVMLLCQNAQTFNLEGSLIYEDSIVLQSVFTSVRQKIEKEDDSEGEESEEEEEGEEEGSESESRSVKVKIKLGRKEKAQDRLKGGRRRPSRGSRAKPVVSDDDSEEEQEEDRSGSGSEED
# UniProt Q96GM5: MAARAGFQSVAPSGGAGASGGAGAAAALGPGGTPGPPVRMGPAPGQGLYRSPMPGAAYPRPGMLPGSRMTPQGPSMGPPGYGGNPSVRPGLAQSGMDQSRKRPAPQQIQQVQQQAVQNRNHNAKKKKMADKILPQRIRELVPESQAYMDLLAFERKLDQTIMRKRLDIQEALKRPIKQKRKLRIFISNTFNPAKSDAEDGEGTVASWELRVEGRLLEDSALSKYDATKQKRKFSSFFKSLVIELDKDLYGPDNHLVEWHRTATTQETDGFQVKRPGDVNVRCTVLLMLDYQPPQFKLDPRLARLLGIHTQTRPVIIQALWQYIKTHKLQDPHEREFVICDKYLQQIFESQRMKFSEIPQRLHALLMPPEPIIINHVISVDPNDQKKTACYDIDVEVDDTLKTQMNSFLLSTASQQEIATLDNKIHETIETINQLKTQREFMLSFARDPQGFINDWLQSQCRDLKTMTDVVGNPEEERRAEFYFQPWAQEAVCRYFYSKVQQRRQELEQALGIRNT
# UniProt Q15532: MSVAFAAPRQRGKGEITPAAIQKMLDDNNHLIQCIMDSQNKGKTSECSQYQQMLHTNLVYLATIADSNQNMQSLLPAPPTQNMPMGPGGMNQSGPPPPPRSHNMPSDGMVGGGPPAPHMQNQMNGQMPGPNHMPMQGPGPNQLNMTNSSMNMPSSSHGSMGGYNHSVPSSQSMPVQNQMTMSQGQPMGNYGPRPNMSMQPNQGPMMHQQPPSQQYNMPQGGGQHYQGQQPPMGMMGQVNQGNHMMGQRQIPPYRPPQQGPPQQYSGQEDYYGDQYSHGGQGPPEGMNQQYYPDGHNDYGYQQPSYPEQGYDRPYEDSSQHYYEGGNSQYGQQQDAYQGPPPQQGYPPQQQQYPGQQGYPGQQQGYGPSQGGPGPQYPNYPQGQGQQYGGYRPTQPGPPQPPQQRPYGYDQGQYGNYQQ
# Molecular target: N-terminal green fluorescent protein (GFP)-tagged BRD9 protein (bromodomain-containing protein 9), HeLa stable line (UniProt Q9H8M2)
# Assay: affinity purification with mass spectrometry; label-free GFP pulldown with GFP-trap beads (Chromotek) of nuclear extracts of GFP-BRD9 HeLa against wild-type HeLa; 1 mg extract, 300 mM NaCl, 0.15% NP-40, 0.5 mM dithiothreitol, 20 mM HEPES-KOH pH 7.9, with ethidium bromide to prevent DNA-mediated interactions; LC-MS/MS
row,Substance,binding
1,"GLTSCR1 (endogenous, HeLa) (from UniProt Q9NZM4 1-1560)",binds
2,"GLTSCR1L (endogenous, HeLa) (from UniProt Q6AI39 1-1079)",binds
3,"SMARCA4 (endogenous, HeLa) (from UniProt P51532 1-1647)",binds
4,"SMARCD1 (endogenous, HeLa) (from UniProt Q96GM5 1-515)",binds
5,"SS18 (endogenous, HeLa) (from UniProt Q15532 1-418)",binds

# Results are given in words; binding and its absence hold for the method and conditions named. In cells and extracts the contact can be indirect. These calls come from enrichment with a bait or labelling near it, and not all partners need be listed.
